What all share (assay): co-IP
For assay [1], the target named is T1, Myc-PGC1α (peroxisome proliferator-activated receptor gamma coactivator 1-alpha), expressed from adenovirus (mouse) (UniProt O70343).
T1 sequence: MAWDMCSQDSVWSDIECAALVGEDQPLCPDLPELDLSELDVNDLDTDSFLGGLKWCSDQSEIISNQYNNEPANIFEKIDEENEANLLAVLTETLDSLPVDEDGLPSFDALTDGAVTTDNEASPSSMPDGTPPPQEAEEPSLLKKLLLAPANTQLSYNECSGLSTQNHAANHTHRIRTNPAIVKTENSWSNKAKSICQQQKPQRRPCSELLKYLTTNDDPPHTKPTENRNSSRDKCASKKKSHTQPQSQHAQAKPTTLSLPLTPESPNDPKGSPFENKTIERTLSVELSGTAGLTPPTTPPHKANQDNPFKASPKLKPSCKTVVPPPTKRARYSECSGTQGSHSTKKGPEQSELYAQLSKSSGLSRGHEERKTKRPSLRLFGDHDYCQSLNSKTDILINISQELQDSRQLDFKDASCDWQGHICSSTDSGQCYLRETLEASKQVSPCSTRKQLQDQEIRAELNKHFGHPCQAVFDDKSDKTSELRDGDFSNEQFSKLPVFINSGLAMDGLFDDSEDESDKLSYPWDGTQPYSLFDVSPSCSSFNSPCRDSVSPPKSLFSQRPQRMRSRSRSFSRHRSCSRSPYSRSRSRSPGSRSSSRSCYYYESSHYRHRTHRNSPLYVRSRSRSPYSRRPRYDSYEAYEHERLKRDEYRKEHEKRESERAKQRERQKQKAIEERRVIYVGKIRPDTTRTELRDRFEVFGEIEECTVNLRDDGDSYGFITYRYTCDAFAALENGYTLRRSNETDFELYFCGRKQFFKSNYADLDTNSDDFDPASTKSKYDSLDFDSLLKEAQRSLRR

Chains of the proteins cited; added tags and fusions are not shown.
UniProt P19091: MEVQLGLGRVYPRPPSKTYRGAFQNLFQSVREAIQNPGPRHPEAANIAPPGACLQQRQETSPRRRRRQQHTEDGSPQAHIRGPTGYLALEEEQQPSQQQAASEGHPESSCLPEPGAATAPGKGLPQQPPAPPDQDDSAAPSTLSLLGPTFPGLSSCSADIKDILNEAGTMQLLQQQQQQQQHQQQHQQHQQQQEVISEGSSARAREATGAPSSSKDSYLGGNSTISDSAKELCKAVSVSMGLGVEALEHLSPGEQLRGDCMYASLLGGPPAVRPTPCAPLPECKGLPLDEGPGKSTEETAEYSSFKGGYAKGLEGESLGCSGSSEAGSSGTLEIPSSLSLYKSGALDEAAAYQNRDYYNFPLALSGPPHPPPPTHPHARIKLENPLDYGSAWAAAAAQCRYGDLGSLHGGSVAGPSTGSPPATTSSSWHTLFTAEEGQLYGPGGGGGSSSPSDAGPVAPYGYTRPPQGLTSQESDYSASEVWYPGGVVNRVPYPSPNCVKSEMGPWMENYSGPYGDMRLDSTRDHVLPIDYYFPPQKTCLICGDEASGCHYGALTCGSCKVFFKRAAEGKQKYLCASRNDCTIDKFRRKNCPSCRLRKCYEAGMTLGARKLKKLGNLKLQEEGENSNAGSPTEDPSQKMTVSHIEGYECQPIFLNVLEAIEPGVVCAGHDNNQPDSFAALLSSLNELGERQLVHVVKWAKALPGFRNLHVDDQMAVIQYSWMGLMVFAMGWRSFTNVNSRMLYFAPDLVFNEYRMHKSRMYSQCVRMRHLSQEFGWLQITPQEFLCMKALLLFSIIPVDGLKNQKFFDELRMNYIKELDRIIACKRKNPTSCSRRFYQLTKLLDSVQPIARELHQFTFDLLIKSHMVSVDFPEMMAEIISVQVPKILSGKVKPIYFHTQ

Assay [2] has as its target T2, HA-tagged mERRα (mouse) (UniProt O08580).
T2 sequence: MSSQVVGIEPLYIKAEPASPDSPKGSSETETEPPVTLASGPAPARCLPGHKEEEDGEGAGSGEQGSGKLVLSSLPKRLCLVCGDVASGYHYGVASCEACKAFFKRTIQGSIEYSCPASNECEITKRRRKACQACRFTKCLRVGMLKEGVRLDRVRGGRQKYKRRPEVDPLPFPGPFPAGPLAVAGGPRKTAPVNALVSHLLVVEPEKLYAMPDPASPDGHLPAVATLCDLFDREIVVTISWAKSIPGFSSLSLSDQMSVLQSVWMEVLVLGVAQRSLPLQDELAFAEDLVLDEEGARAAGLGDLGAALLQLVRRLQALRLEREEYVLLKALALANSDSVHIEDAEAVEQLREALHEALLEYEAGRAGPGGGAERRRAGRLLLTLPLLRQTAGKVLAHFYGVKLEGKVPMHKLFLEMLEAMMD

The target in assay [3] is T2, HA-tagged mERRα (mouse). The source holds these as a separate data set.
In assay [4] the target is T1, Myc-PGC1α (peroxisome proliferator-activated receptor gamma coactivator 1-alpha), expressed from adenovirus (mouse). This is another data set of the same source.

Where two headings read alike, the source gives them in different places. No constants are given. Whether binding was seen depends on the method and setting. In cells and extracts the contact can be indirect. Some binding calls cover weakened binding; strength is not graded here. Where a sequence is shown, tags or fusion partners need not be part of it.

As to “Androgen receptor (AR), endogenous in hepatocytes (from UniProt P19091 1-899)”, the binding result in assay [1] was “binds”.
As for Flag-mAR (from UniProt P19091 1-899), in the assay with HA-tagged mERRα (mouse) [2], the binding entry was “binds”.

B1: Myc-tagged mPGC1α (protein, UniProt O70343 1-797)
chain: T1 sequence
On to B1, for which the binding entry in the assay with HA-tagged mERRα (mouse) [3] is on record as “binds”.

B2: Estrogen-related receptor alpha (ERRα), endogenous in hepatocytes (protein, UniProt O08580 1-422)
chain: T2 sequence
Take B2: the binding entry in assay [4] is listed as “binds”.

Source of the values: article doi:10.1101/2023.11.02.565247.
